Source: paper PMC2444042
Results are given in words; binding and its absence hold for the method and conditions named. Binding seen in cells or lysates may run through a third protein. A result given as binding can be weak or reduced; the word gives no strength.

Target: GST-AIP4 fusion protein (human)
Assay: pull-down; GST-AIP4 or control GST on glutathione-agarose beads; 35S-labelled in vitro translation products incubated 2 hours at 4°C in 1% Triton-containing buffer; SDS-PAGE and fluorography; Notch ICs tested alone and with DTX (0.5 or 3 µl) or numb; only the target purified

Binder | binding
numb (protein, UniProt P49757 1-651) MNKLRQSFRRKKDVYVPEASRPHQWQTDEEGVRTGKCSFPVKYLGHVEVDESRGMHICEDAVKRLKAERKFFKGFFGKTGKKAVKAVLWVSADGLRVVDEKTKDLIVDQTIEKVSFCAPDRNFDRAFSYICRDGTTRRWICHCFMAVKDTGERLSHAVGCAFAACLERKQKREKECGVTATFDASRTTFTREGSFRVTTATEQAEREEIMKQMQDAKKAETDKIVVGSSVAPGNTAPSPSSPTSPTSDATTSLEMNNPHAIPRRHAPIEQLARQGSFRGFPALSQKMSPFKRQLSLRINELPSTMQRKTDFPIKNAVPEVEGEAESISSLCSQITNAFSTPEDPFSSAPMTKPVTVVAPQSPTFQANGTDSAFHVLAKPAHTALAPVAMPVRETNPWAHAPDAANKEIAATCSGTEWGQSSGAASPGLFQAGHRRTPSEADRWLEEVSKSVRAQQPQASAAPLQPVLQPPPPTAISQPASPFQGNAFLTSQPVPVGVVPALQPAFVPAQSYPVANGMPYPAPNVPVVGITPSQMVANVFGTAGHPQAAHPHQSPSLVRQQTFPHYEASSATTSPFFKPPAQHLNGSAAFNGVDDGRLASADRHTEVPTGTCPVDPFEAQWAALENKSKQRTNPSPTNPFSSDLQKTFEIEL | binds
DTX (Deltex) (protein, UniProt Q86Y01 1-620) MSRPGHGGLMPVNGLGFPPQNVARVVVWEWLNEHSRWRPYTATVCHHIENVLKEDARGSVVLGQVDAQLVPYIIDLQSMHQFRQDTGTMRPVRRNFYDPSSAPGKGIVWEWENDGGAWTAYDMDICITIQNAYEKQHPWLDLSSLGFCYLIYFNSMSQMNRQTRRRRRLRRRLDLAYPLTVGSIPKSQSWPVGASSGQPCSCQQCLLVNSTRAASNAILASQRRKAPPAPPLPPPPPPGGPPGALAVRPSATFTGAALWAAPAAGPAEPAPPPGAPPRSPGAPGGARTPGQNNLNRPGPQRTTSVSARASIPPGVPALPVKNLNGTGPVHPALAGMTGILLCAAGLPVCLTRAPKPILHPPPVSKSDVKPVPGVPGVCRKTKKKHLKKSKNPEDVVRRYMQKVKNPPDEDCTICMERLVTASGYEGVLRHKGVRPELVGRLGRCGHMYHLLCLVAMYSNGNKDGSLQCPTCKAIYGEKTGTQPPGKMEFHLIPHSLPGFPDTQTIRIVYDIPTGIQGPEHPNPGKKFTARGFPRHCYLPNNEKGRKVLRLLITAWERRLIFTIGTSNTTGESDTVVWNEIHHKTEFGSNLTGHGYPDASYLDNVLAELTAQGVSEAAAKA | binds
